These are yes or no findings as the source states them, for the method shown. In cells and extracts the contact can be indirect. Some binding calls cover weakened binding; strength is not graded here.
Molecular target: autophagic cargo receptor P62 (human (endogenous in SH-SY5Y)) (UniProt Q13501)
Experiment: co-IP; SH-SY5Y cells treated with or without CORT (50 uM, 48 h); lysate incubated with anti-LC3 or anti-P62 antibody for 12 h, then agarose-protein A/G beads for 12 h; beads washed five times with cell lysis buffer; immunoblot with anti-PML antibody

The chains behind the UniProt entries cited, without tags or fusion partners.
UniProt P29590: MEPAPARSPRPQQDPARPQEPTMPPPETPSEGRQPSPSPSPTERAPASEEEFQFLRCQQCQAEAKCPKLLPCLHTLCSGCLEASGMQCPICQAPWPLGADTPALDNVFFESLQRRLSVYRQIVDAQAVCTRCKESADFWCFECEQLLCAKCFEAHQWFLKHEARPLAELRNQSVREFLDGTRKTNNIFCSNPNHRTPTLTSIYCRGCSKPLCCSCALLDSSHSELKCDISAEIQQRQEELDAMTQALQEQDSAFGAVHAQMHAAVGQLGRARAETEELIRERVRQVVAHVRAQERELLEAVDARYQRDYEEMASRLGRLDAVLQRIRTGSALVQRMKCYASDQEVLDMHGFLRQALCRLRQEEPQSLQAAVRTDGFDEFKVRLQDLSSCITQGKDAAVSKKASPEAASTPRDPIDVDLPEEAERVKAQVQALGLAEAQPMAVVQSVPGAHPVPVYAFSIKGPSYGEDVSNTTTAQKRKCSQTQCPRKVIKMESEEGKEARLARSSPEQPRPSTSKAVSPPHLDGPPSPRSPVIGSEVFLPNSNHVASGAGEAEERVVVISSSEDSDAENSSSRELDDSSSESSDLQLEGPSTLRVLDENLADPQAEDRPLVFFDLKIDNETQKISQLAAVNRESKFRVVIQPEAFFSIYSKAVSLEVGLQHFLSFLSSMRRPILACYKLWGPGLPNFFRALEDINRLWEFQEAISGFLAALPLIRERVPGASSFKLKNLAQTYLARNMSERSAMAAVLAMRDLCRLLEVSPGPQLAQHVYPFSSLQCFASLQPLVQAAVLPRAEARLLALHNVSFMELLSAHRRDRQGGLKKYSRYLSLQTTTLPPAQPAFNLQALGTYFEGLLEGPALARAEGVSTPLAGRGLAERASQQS

binding: binds
Substance: Promyelocytic leukemia protein (PML) (from UniProt P29590 1-882)

— article PMC7415815
